Laboratory results as given in article PMC5256034.

Target: T1, epitope-tagged chicken cyclin I (CCNI) (chicken) (UniProt F1P1K0)
T1 sequence: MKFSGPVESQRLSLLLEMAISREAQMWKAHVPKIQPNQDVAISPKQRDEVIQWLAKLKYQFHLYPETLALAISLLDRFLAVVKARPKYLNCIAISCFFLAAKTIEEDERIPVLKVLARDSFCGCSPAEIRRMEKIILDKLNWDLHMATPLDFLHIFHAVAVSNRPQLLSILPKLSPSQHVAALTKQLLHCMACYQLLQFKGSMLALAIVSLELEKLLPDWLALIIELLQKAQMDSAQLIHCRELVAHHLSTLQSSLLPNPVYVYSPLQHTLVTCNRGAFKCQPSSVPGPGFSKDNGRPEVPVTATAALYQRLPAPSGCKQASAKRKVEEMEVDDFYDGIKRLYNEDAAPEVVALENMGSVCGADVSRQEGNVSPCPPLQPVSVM
Assay: co-IP; HEK293 cells transfected with epitope-tagged proteins; lysis in 150 mM NaCl, 50 mM Tris pH 7.5, 1% Triton X-100; immobilized anti-Myc antibody, 4 °C overnight; western blot

epitope-tagged chicken CDK5 (enzyme)
binding: binds

No constants are given. Whether binding was seen depends on the method and setting. In cells and extracts the contact can be indirect. A result given as binding can be weak or reduced; the word gives no strength. Where a sequence is shown, tags or fusion partners need not be part of it.
